Results as given in US20160361298A1, “METHODS AND COMPOSITIONS FOR TREATING CANCER” (Globavir BioSciences, Inc., priority 2015, published 2016).

Protein sequences, listed by entry. Tags and fused reporters are not part of them. Lines headed by an entry give the natural chain unless they say otherwise; changes in a name come on top.
UniProt P48775: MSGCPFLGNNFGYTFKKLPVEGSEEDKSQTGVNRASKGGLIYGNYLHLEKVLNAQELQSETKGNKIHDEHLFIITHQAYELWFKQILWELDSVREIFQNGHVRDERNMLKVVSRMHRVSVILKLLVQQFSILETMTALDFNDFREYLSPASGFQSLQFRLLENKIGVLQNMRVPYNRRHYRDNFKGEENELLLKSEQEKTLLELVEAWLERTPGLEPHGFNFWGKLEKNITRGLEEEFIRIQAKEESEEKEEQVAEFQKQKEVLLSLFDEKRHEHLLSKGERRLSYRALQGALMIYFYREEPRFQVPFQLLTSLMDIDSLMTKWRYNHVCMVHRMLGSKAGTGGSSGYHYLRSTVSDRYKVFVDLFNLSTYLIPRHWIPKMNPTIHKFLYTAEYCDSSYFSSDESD
UniProt P14902, whole entry: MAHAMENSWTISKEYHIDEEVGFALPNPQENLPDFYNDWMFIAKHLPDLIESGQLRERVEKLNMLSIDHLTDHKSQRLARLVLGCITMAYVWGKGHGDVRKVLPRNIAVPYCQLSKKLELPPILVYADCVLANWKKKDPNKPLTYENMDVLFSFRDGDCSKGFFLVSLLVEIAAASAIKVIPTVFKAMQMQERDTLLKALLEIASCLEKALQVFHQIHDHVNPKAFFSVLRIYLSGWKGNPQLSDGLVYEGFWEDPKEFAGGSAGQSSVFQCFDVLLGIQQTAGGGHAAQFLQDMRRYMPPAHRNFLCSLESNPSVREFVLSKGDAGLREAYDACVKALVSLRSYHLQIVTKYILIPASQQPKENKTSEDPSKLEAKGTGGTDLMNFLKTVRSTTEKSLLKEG

Experiments:
[1] = system: SCC4 (human squamous cell carcinoma); experiment: Cancer cell cytotoxicity, CellTiter-Glo Luminescent Cell Viability Assay; settings: SCC-4, read-out: IC50 (μM) cancer cell cytotoxicity
[2] = system: Pano2 (murine pancreatic); experiment: as above; settings: Mus musculus, PanO2, read-out: IC50 (μM) cancer cell cytotoxicity
[3] = system: HT29 (human colorectal adenocarcinoma); experiment: as above; settings: HT-29, read-out: IC50 (μM) cancer cell cytotoxicity
[4] = system: U87MG (human glioblastoma); experiment: as above; settings: U-87 MG, read-out: IC50 (μM) cancer cell cytotoxicity
Recombinant TDO = biological target: T1, Recombinant TDO (Homo sapiens, UniProt P48775); experiment: TDO Inhibition Assay (recombinant enzyme, absorbance at 321 nm); format: biochemical
T1 construct: Recombinant TDO or IDO was diluted to 16 ng/uL and 50 uL loaded into wells of a 96-well plate
Method: Inhibition of IDO by TDO/IDO test inhibitors was assessed in vitro. A substrate mixture was prepared by mixing equal volumes of 80 mM ascorbic acid diluted in 0.405 M Tris, pH 8.0 and a mixture of […] L-tryptophan, 9,000 units/mL catalase and 40 uM methyene blue. Recombinant TDO or IDO was diluted to 16 ng/uL and 50 uL loaded into wells of a 96-well plate. The reaction was started by the addition of 50 uL substrate mixture. The plate was read in kinetic mode at 321 nm for 5 minutes. The rate of increase of absorbance measured in the absence of a TDO/IDO inhibitor is taken as the maximum rate of enzymatic activity.

GL261 (murine glioma) = experiment: Cancer cell cytotoxicity, CellTiter-Glo Luminescent Cell Viability Assay; settings: Mus musculus, GL261, read-out: IC50 (μM) cancer cell cytotoxicity
[5] = system: HuT78 (human CTCL cell line); experiment: as above; settings: HuT78, read-out: IC50 (μM) cancer cell cytotoxicity
Recombinant IDO = biological target: T2, Recombinant IDO (Homo sapiens, UniProt P14902); experiment: IDO Inhibition Assay (recombinant enzyme, absorbance at 321 nm); format: biochemical
T2 construct: Recombinant TDO or IDO was diluted to 16 ng/uL and 50 uL loaded into wells of a 96-well plate
Method: Inhibition of IDO by TDO/IDO test inhibitors was assessed in vitro. […] Recombinant TDO or IDO was diluted to 16 ng/uL and 50 uL loaded into wells of a 96-well plate. The reaction was started by the addition of 50 uL substrate mixture. […] The rate of increase of absorbance measured in the absence of a TDO/IDO inhibitor is taken as the maximum rate of enzymatic activity.

With `Clc1ccc(CSC(Cn2ccnc2)c2ccc(Cl)cc2Cl)cc1` (stereo not drawn) [Sulconazole] the IC50 [1] was 109 µM, the IC50 [2] was 9.35 µM and the IC50 [3] was 8.74 µM. It also gave an IC50 [4] of 13.6 µM, an activity at 1 µM (Recombinant TDO; 1 μM test compound, remaining enzyme activity, read-out: TDO Inhibition Assay Screening (Activity, %) 1 μM) of 72% and an activity at 10 µM (Recombinant TDO; 10 μM test compound, remaining enzyme activity, read-out: TDO Inhibition Assay Screening (Activity, %) 10 μM) of 17%. The IC50 (Recombinant TDO; read-out: TDO Inhibition Assay Dose Resp. (IC50)) was 3.51 µM, the IC50 (GL261 (murine glioma)) was 61.8 µM and the IC50 [5] was 9.37 µM. For the same compound, the activity at 1 µM (Recombinant IDO; 1 μM test compound, remaining enzyme activity, read-out: IDO Inhibition Assay Screening (Activity, %) 1 μM) was 36%, the activity at 10 µM (Recombinant IDO; 10 μM test compound, remaining enzyme activity, read-out: IDO Inhibition Assay Screening (Activity, %) 10 μM) was 11% and the IC50 (Recombinant IDO; read-out: IDO Inhibition Assay Dose Resp. (IC50)) was 0.74 µM.
